Measurements taken from publication PMC8208988.
Substitutions are numbered along the chain they refer to. Names may count otherwise. These are yes or no findings as the source states them, for the method shown. Binding seen in cells or lysates may run through a third protein. Some binding calls cover weakened binding; strength is not graded here. Where a sequence is shown, tags or fusion partners need not be part of it.

T1: FLAG-tagged MTERF4 (human) (UniProt Q7Z6M4)
T1 sequence: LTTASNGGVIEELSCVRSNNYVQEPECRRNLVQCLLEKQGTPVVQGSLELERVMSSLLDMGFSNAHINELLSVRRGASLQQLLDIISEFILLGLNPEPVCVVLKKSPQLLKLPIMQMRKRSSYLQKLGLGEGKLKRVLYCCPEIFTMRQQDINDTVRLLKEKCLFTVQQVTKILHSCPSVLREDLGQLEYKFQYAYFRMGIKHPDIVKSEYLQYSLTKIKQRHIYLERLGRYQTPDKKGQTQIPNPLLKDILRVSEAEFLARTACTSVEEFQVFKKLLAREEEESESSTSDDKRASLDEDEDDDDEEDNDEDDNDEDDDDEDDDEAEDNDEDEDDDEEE

B1: HA-tagged NSUN4 triple mutant K215A, H218A, R275A (enzyme, UniProt Q96CB9 26-384)
chain: RYKKKWAATEPKFPAVRLALQNFDMTYSVQFGDLWPSIRVSLLSEQKYGALVNNFAAWDHVSAKLEQLSAKDFVNEAISHWELQSEGGQSAAPSPASWACSPNLRCFTFDRGDISRFPPARPGSLGVMEYYLMDAASLLPVLALGLQPGDIVLDLCAAPGGKTLALLQTGCCRNLAANDLSPSRIARLQAILASYVPEEIRDGNQVRVTSWDGRKWGELEGDTYDRVLVDVPCTTDRHSLHEEENNIFKASRKKERQILPVLQVQLLAAGLLATKPGGHVVYSTCSLSHLQNEYVVQGAIELLANQYSIQVQVEDLTHFRRVFMDTFCFFSSCQVGELVIPNLMANFGPMYFCKMRRLT
B2: HA-tagged NSUN4 quadruple mutant V65R, R136A, I139R, R141A (enzyme, UniProt Q96CB9 26-384)
chain: B1 chain with V40R, R111A, I114R, R116A, A190K, A193H, A250R
B3: HA-tagged NSUN4 ΔN 26-36 (enzyme, UniProt Q96CB9)
chain: KFPAVRLALQNFDMTYSVQFGDLWPSIRVSLLSEQKYGALVNNFAAWDHVSAKLEQLSAKDFVNEAISHWELQSEGGQSAAPSPASWACSPNLRCFTFDRGDISRFPPARPGSLGVMEYYLMDAASLLPVLALGLQPGDIVLDLCAAPGGKTLALLQTGCCRNLAANDLSPSRIARLQKILHSYVPEEIRDGNQVRVTSWDGRKWGELEGDTYDRVLVDVPCTTDRHSLHEEENNIFKRSRKKERQILPVLQVQLLAAGLLATKPGGHVVYSTCSLSHLQNEYVVQGAIELLANQYSIQVQVEDLTHFRRVFMDTFCFFSSCQVGELVIPNLMANFGPMYFCKMRRLT

These binders were tested against T1, FLAG-tagged MTERF4 (human) (assay: co-sedimentation; continuous 10-30% sucrose gradient of mitochondrial lysates (2% digitonin, 100 mM KCl, 20 mM MgCl2, 10 mM Tris-HCl pH 7.5) from HEK 293T cells co-expressing MTERF4-FLAG and an NSUN4-HA variant; fractions immunoblotted for HA, FLAG, bL12m, bS16m).

| binding | Binder |
| --- | --- |
| binds | B1 |
| no binding | B2 |
| binds | B3 |
